These are yes or no findings as the source states them, for the method shown. In cells and extracts the contact can be indirect. Some results given as binding are weak or reduced against the parent protein; the word gives no strength.

For this test, the target named is T1, Progranulin (PGRN) (human), P28799.
T1 chain: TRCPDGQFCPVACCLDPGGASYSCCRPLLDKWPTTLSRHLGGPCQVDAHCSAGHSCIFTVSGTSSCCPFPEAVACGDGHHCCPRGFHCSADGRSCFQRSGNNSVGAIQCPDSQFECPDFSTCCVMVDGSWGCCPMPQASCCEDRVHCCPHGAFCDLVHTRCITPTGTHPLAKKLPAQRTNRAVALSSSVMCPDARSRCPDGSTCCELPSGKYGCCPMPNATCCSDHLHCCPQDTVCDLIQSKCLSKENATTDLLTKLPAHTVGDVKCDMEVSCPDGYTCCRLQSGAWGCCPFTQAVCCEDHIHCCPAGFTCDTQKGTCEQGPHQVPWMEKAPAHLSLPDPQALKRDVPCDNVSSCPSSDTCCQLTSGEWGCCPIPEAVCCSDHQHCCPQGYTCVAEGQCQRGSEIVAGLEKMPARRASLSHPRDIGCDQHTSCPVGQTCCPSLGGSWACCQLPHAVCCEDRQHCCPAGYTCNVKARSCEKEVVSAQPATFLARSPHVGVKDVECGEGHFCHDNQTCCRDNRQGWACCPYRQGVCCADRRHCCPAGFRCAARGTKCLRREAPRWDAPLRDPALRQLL
Briefly: co-IP; about 500 ug cellular extract of rhPGRN-pretreated HeLa cells incubated with anti-PGRN or control IgG (25 ug/mL) for 1 hr, then protein A/G-agarose at 4°C overnight; bound protein blotted with anti-TNFR1 and anti-TNFR2. Conditions: remark: other sources report otherwise.

B1: Tumor necrosis factor receptor 2 (TNFR2), P20333 23-461 (receptor)
chain: LPAQVAFTPYAPEPGSTCRLREYYDQTAQMCCSKCSPGQHAKVFCTKTSDTVCDSCEDSTYTQLWNWVPECLSCGSRCSSDQVETQACTREQNRICTCRPGWYCALSKQEGCRLCAPLRKCRPGFGVARPGTETSDVVCKPCAPGTFSNTTSSTDICRPHQICNVVAIPGNASMDAVCTSTSPTRSMAPGAVHLPQPVSTRSQHTQPTPEPSTAPSTSFLLPMGPSPPAEGSTGDFALPVGLIVGVTALGLLIIGVVNCVIMTQVKKKPLCLQREAKVPHLPADKARGTQGPEQQHLLITAPSSSSSSLESSASALDRRAPTRNQPQAPGVEASGAGEARASTGSSDSSPGGHGTQVNVTCIVNVCSSSDHSSQCSSQASSTMGDTDSSPSESPKDEQVPFSKEECAFRSQLETPETLLGSTEEKPLPLGVPDAGMKPS
For B1, the binding result is “binds”.

The values above are taken from article PMC5295437.
